Source: US4361553A, “Therapeutic uses of dynorphin” (Regents of the University of California, priority 1981, dated 1982)
Like-named read-outs stand apart in the source and are kept apart here.

System: naive mice
Assay: Tail-flick analgesia, morphine s.c. with or without dynorphin-(1-13) i.c.v., naive group (Example III)
Format: in vivo
Conditions: Mus musculus, sc
Method: Male simonesen ICR mice (Gilroy, CA) weighing between 20-25 g were housed for at least one day prior to experimentation, and used within 5 days. Each mouse was used only once.
Analgesia was measured by the tail-flick method of D'Amour and Smith, J.Pharmac.Exp.Ther., 72, pp. 74-79 (1941), incorporated herein by reference, as modified by Tulunay and Takemori, J.Pharmac.Exp.Ther., 190, pp. 395-400 (1974), incorporated herein by reference. […] Nonresponding animals were removed from the heat stimulus when reaction times exceeded 10 sec. to avoid the tail damage.
Drugs were injected 30 min prior to testing, unless otherwise indicated.
The animals were separated into two groups.
The ED50 values, their 95% confidence limits and significance of the potency ratio between two ED50 values were determined by the method of Litchfield and Wilcoxon, J.Pharmacol.Exp.Ther, 96:99-113 (1949), incorporated herein by reference.

Which ED50 (read-out: ED50 of morphine, morphine s.c. alone, naive mice) does the source give for `CN1CC[C@]23c4c5ccc(O)c4O[C@H]2[C@@H](O)C=C[C@H]3[C@H]1C5.O=S(=O)(O)O` [Morphine, morphine sulfate] here?
Its ED50 is ~4.9 mg/kg.

And the ED50 (read-out: ED50 of morphine, morphine s.c. in the presence of 10 g dynorphin-(1-13) (unit as printed), naive mice)?
Its ED50 is ~8.4 mg/kg.

And the ED50 (read-out: ED50 of morphine, morphine s.c. in the presence of 20 g dynorphin-(1-13) (unit as printed), naive mice)?
Its ED50 is ~14.5 mg/kg.
